Results as given in PubChem BioAssay AID1671190 (National Center for Advancing Translational Sciences (NCATS), 2021).
Screen size: about 580,000 compounds; about 6,100 (1.1%) were called active. Not shown: some 15% with an inconclusive outcome. The call rests on the fitted dose curve; in most records, active means well fitted inhibition curve with a large enough effect; inconclusive means small, poorly fitted or top-dose-only effect, or another doubt; inactive means no such curve, though single readings can be large or run the other way. The list shows a part of the results, in another mix than the full data. The source gives no active or inactive call for entries shown without one.

Sequences of proteins named here, by UniProt entry; tags and fusion partners are left off.
UniProt P18054, whole entry, looked up: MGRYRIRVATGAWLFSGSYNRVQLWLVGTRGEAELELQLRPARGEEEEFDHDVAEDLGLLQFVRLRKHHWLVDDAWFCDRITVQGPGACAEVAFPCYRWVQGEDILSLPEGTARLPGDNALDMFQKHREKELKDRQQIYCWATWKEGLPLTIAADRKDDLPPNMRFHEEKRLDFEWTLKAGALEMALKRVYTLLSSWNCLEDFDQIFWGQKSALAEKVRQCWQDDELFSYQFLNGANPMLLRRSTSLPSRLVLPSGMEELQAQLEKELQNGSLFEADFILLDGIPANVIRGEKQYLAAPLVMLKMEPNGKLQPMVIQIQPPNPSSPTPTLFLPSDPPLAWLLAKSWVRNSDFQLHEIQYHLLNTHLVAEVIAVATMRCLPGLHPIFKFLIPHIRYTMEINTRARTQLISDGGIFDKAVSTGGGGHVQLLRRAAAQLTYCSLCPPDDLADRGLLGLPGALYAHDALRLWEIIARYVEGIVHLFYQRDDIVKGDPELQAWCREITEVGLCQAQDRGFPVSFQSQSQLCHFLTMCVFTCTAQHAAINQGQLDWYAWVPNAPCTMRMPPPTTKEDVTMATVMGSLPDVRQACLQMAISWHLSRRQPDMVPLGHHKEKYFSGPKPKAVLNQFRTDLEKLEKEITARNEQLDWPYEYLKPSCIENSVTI

The compounds below were run against Polyunsaturated fatty acid lipoxygenase ALOX12 (Homo sapiens) (UniProt P18054) (assay: Primary qHTS assay for inhibitors of human arachidonate 12S-lipoxygenase (ALOX12): Round 2). Conditions: purified 12hLO, xylenol orange hydroperoxide absorbance; activity change, negative = inhibition: at 0.00344 µM (top of the series) unless noted.
How it was run: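 Purified human 12hLO (150 nM final) in 25 mM Hepes, 0.01% Triton X-100, pH 7.0 was preincubated 15 min at room temperature with compound. Then 40 uM arachidonic acid was added, 30 min. Hydroperoxide was read by Fe-XO absorbance ratio 573/405 nm.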
On the % scale 0 is the no-effect control and ±100 the full control effect; potency means the concentration at half of the fitted maximal effect.

SMILES	activity change, negative = inhibition [%]	Potency
O=S1(=O)OC(c2ccc(O)cc2)(c2ccc(O)cc2)c2ccccc21	-3.7	
CCCCNc1ccc(C(=O)OCCOCCOCCOCCOCCOCCOCCOCCOCCOC)cc1	-26	
COc1cc2c(cc1OC)CN(C(=O)[C@H](C)N[C@@H](CCc1ccccc1)C(=O)O)[C@H](C(=O)O)C2	-37.9	
O=C(O)C(S)C(S)C(=O)O (stereo unspecified)	53	
CCC1=C(C)CN(C(=O)NCCc2ccc(S(=O)(=O)NC(=O)NC3CCC(C)CC3)cc2)C1=O (stereo unspecified)	-27.7	
O=C(O)/C=C/c1ccc(Cn2ccnc2)cc1	12.7	
Cc1cc(C(C)(C)C)c(O)c(C(C)(C)C)c1	8.25	
CSc1ccc(CNc2ncc(-c3cccc([N+](=O)[O-])c3)n2C)cc1		active: 0.708 µM
CN/C(=C\[N+](=O)[O-])NCCSCc1ccc(CN(C)C)o1	11.2	
CCOc1ccc(NS(=O)(=O)c2ccc(N)cc2)nn1	23.9	
O=c1cc(CO)occ1O	18.1	
CNC(=S)N/N=C/c1ccc(SC)cc1		active: 14.1 µM
NC1CCN(c2cccc(Cl)n2)CC1	46.4	
O=C(O)CCNC(=O)c1ccc(N=Nc2ccc(O)c(C(=O)O)c2)cc1	-2.42	
CCCN1CCCC[C@H]1C(=O)Nc1c(C)cccc1C	-34.4	
COc1cc(NCc2ccc3nc(N)nc(N)c3c2C)cc(OC)c1OC	2.34	
CC(=O)Nc1ccc(OC(=O)c2ccccc2OC(C)=O)cc1	17.6	
COc1ccc(C)cc1Nc1nc(C)nc2c1oc1ccccc12		active: 35.5 µM
CC(=O)NC(=O)c1ccccc1O	3.85	
CN1CC(=O)N2[C@H](c3ccc4c(c3)OCO4)c3[nH]c4ccccc4c3C[C@@H]2C1=O	15.1	
CCCCCCCCCCCCOCCOCCOCCOCCOCCOCCOCCOCCOCCO	15.1	
Cc1c(C(=O)NN2CCCCC2)nn(-c2ccc(Cl)cc2Cl)c1-c1ccc(Cl)cc1	-11.9	
C[C@](N)(Cc1ccc(O)c(O)c1)C(=O)O	-5.74	
Cc1cc(C)c(CN2CCC3(Cc4ccccc4CNC3=O)C2)c(C)c1 (stereo unspecified)		active: 1 µM
CCOC(=O)O[C@]1(C(=O)OCCl)CC[C@H]2[C@@H]3CCC4=CC(=O)C=C[C@]4(C)[C@H]3[C@@H](O)C[C@@]21C	32.2	
COc1cc2c(Nc3ccc(Br)cc3F)ncnc2cc1OCC1CCN(C)CC1	-2.93	

SMILES	activity change, negative = inhibition [%]	Potency
NS(=O)(=O)c1cc2c(cc1Cl)NC(C(Cl)Cl)NS2(=O)=O (stereo unspecified)	10.8	
CCC(=O)Nc1ccc(O)cc1	-14.9	
CN[C@@H]1[C@H](O)[C@H](NC)[C@H]2O[C@@]3(O)C(=O)C[C@@H](C)O[C@H]3O[C@@H]2[C@H]1O	-55.4	
CC(C)Nc1cccnc1N1CCN(C(=O)c2cc3cc(NS(C)(=O)=O)ccc3[nH]2)CC1	-34.2	
Cc1onc(-c2ccccc2Cl)c1C(=O)N[C@@H]1C(=O)N2[C@@H]1SC(C)(C)[C@@H]2C(=O)O	17.4	
NC(N)=NC(=O)Cc1c(Cl)cccc1Cl	-13	
COC(=O)C1=C(C(=O)OC)C(c2ccccc2O)c2sc(=O)[nH]c2S1 (stereo unspecified)		active: 44.7 µM
CN(N=O)C(=O)N[C@@H]1[C@@H](O)[C@H](O)[C@@H](CO)O[C@@H]1O	28.1	
COc1ccc(O)cc1	50.2	
COc1cc(-c2cc(C(=O)Nc3ccc(O)cc3)c3ccccc3n2)cc(OC)c1OC		active: 44.7 µM
CC1=C(O)C(=O)CO1		active: 25.1 µM
O=S(CC(O)c1ccccc1)c1ccccc1 (stereo unspecified)		active: 28.2 µM
CC1=NN(c2ccccc2)C(=O)C1	6.61	
CCN(CC)CCNC(=O)c1cc(Cl)c(N)cc1OC	-18	
CN(C)C/C=C(/c1ccc(Br)cc1)c1cccnc1	9.24	
O=C(Cc1cccc(F)c1)N1CCC2(CC1)NC(=O)N(c1cccc(F)c1)N2		active: 6.31 µM
CCCNc1nc(NCc2ccccc2OC)c2cnn(C)c2n1		active: 39.8 µM
CCOc1ccc2ccccc2c1C(=O)N[C@@H]1C(=O)N2[C@@H]1SC(C)(C)[C@@H]2C(=O)O	-4.07	
NC/C=C/C(=O)O	50.8	
Cc1ccc(Nc2nc(-c3cccc(N4C(=O)c5ccccc5C4=O)c3)cs2)cc1		active: 17.8 µM
CC(C)COc1cccc(C(=O)NC(=S)Nc2cccc(NC(=O)c3ccccc3Cl)c2)c1		active: 28.2 µM
COC(=O)C1=C(C)NC(C)=C(C(=O)O[C@@H]2CCCN(Cc3ccccc3)C2)[C@@H]1c1cccc([N+](=O)[O-])c1	-18.9	
Cn1c(-c2ccc(-c3ccccc3)cc2)c[nH]c1=S		active: 39.8 µM
CC(C)[N+](C)(CCOC(=O)C1c2ccccc2Oc2ccccc21)C(C)C	-1.56	
CN1CCC[C@@H]1Cc1c[nH]c2ccc(CCS(=O)(=O)c3ccccc3)cc12	12.3	
COC(=O)c1ccccc1C(=O)c1ccc(OCCN2CCCCC2)cc1	-14.3	

6 compounds drawn at random from those above, as already listed:
SMILES	activity change, negative = inhibition [%]	Potency
NS(=O)(=O)c1cc2c(cc1Cl)NC(C(Cl)Cl)NS2(=O)=O (stereo unspecified)	10.8	
COc1ccc(O)cc1	50.2	
CN(N=O)C(=O)N[C@@H]1[C@@H](O)[C@H](O)[C@@H](CO)O[C@@H]1O	28.1	
CC(C)[N+](C)(CCOC(=O)C1c2ccccc2Oc2ccccc21)C(C)C	-1.56	
O=C(Cc1cccc(F)c1)N1CCC2(CC1)NC(=O)N(c1cccc(F)c1)N2		active: 6.31 µM
CN[C@@H]1[C@H](O)[C@H](NC)[C@H]2O[C@@]3(O)C(=O)C[C@@H](C)O[C@H]3O[C@@H]2[C@H]1O	-55.4	

The list continues.

SMILES	activity change, negative = inhibition [%]	Potency
CC(C)OC(=O)c1cc2c(OCC(O)CNC(C)(C)C)cccc2[nH]1 (stereo unspecified)	12.2	
COc1cc(C(=S)N2CCOCC2)cc(OC)c1OC	12.6	
O=C(c1ccncc1)N(c1ccc(N2CCOCC2)cc1)C(c1ccccc1)c1nc2ccccc2[nH]1 (stereo unspecified)		active: 11.2 µM
Cc1cccc(OCC(=O)N2CCC3(CC2)NC(=O)N(c2cccc(F)c2)N3)c1		active: 2.24 µM
CC(=O)[C@H]1CC[C@H]2[C@@H]3C=CC4=CC(=O)CC[C@@]4(C)[C@@H]3CC[C@]12C	17.4	
COc1ccc(/C=C/c2cc(C(=O)O)c3ccccc3n2)cc1OC		active: 17.8 µM
CC[C@]1(O)C[C@H]2CN(CCc3c([nH]c4ccccc34)[C@@](C(=O)OC)(c3cc4c(cc3OC)N(C=O)[C@H]3[C@@](O)(C(=O)OC)[C@H](OC(C)=O)[C@]5(CC)C=CCN6CC[C@]43[C@@H]65)C2)C1	23.3	
CCc1nnc(N/N=C/c2c(C)[nH]c3ccccc23)n1N		active: 31.6 µM
N#Cc1cc(NC(=O)C(=O)O)c(Cl)c(NC(=O)C(=O)O)c1	-22.5	
O=C1NC(=Nc2ccc(Cl)cc2)/C(=C/c2ccco2)S1		active: 25.1 µM
COc1ccc(OC(=O)N(CC(=O)O)Cc2ccc(OCCc3nc(-c4ccccc4)oc3C)cc2)cc1	-34.3	
CCOc1cc(OCC)c(C(=O)CCC(=O)O)cc1OCC	35.5	
CCN(CC)CCNC(=O)c1c(C)[nH]c(/C=C2\C(=O)Nc3ccc(F)cc32)c1C	-5.28	
Oc1c(Cl)cc(Cl)c(Cl)c1Cc1c(O)c(Cl)cc(Cl)c1Cl	4.55	
Cc1c(N(C)C)c(=O)n(-c2ccccc2)n1C	-0.0781	
Cc1ccc2c(c1)c1c3n2CCN(C(=O)CCl)C3CCC1 (stereo unspecified)		active: 11.2 µM
NS(=O)(=O)c1ccc(N2CCCCS2(=O)=O)cc1	36.4	
CC(C(=O)O)c1ccc2c(c1)[nH]c1ccc(Cl)cc12 (stereo unspecified)	-53.5	
CCS(=O)(=O)c1ccc2oc(Nc3ccc(C(C)C)cc3)nc2c1		active: 7.08 µM
CCCCc1cc2ccccc2c(OCCN(C)C)n1	-11	
CC(C)c1cc2c(cc1S(=O)(=O)O)[C@@]1(C)CCC[C@@](C)(C(=O)O)[C@@H]1CC2	15.1	
CN(C)C(=O)C(CCN1CCC(O)(c2ccc(Cl)cc2)CC1)(c1ccccc1)c1ccccc1	-24.1	
O=C(O)c1ccc(OCCCOc2ccc(C(=O)O)cc2)cc1	48.4	
c1ccc2[nH]ccc2c1	18.1	
COc1cc2c(N3CCN(C(=O)Nc4ccc(OC(C)C)cc4)CC3)ncnc2cc1OCCCN1CCCCC1	-10.3	
COc1ccc(CCN(C)CCCN2CCc3cc(OC)c(OC)cc3CC2=O)cc1OC	37.1	

SMILES	activity change, negative = inhibition [%]	Potency
CN1CCN(C2=Nc3cc(F)ccc3Cc3ccccc32)CC1	-27.6	
Cc1cccc(C)c1NC(=O)c1ccc(N)cc1	30.7	
Cc1oc(-c2ccccc2)nc1CCC(=O)c1ccc(CC2SC(=O)NC2=O)cc1 (stereo unspecified)	14.2	
O=S(=O)(O)c1ccc(O)cc1	-24	
O=C(C1CCCCC1)N1CC(=O)N2CCc3ccccc3C2C1 (stereo unspecified)	-31.5	
CCN(CC)CC(=O)Oc1ccc(NC(C)=O)cc1	-21	
CCOC(=O)[C@]12CCC=C1N(Cc1ccc3c(c1)OCO3)C(=O)[C@H](CC(=O)NCCc1ccccc1OC)C2		active: 39.8 µM
COC(=O)c1ccc(OC(=O)/C=C/c2ccc(Br)o2)cc1		active: 11.2 µM
O=C(O)[C@H](O)c1ccccc1	-4.61	
COc1ccnc2c1CCCCC2S(=O)c1nc2ccccc2[nH]1 (stereo unspecified)	44.6	
COc1cccc(CC(=O)N2CCC3(CC2)NC(=O)N(c2cccc(F)c2)N3)c1		active: 5.01 µM
Cc1ccc(-n2c(O)c(C=Nc3ccccc3-c3n[nH]c(=S)[nH]c3=O)c3ccccc3c2=O)c(C)c1		active: 15.8 µM
O=C(N[C@@H]1CN(Cc2ccc(F)cc2)C[C@H]1CO)c1ccccc1		active: 12.6 µM
COc1ccc2c(c1OC)C(=O)O[C@@H]2[C@H]1c2c(cc3c(c2OC)OCO3)CCN1C	-19.3	
CCCCCCSc1ccc([C@@H]2[C@@H]3C(=O)N(CC)C(=O)[C@@H]3[C@]3(C(=O)OC)CCCCN23)cc1OC		active: 17.8 µM
C#CCOc1c(Br)cc(/C=C2/C(=O)ON=C2C)cc1OC		active: 5.01 µM
CC(=O)N/N=C/c1ccc([N+](=O)[O-])o1	22.4	
CN1CCN(CCCN2c3ccccc3Sc3ccc(C(F)(F)F)cc32)CC1	13	
CN=C(NC#N)NCCSCc1csc(N=C(N)N)n1	14.4	
CCCC(=O)OC[C@@H](OC(=O)CCC)[C@@H](OC(=O)CCC)[C@H](Cn1c2nc(=O)[nH]c(=O)c-2nc2cc(C)c(C)cc21)OC(=O)CCC	-64.1	
CN(C)CCN1C(=O)c2ccccc2N(C)c2ccccc21	17.1	
COc1ccc(OC)c(C(O)CNC(=O)CN)c1 (stereo unspecified)	-31.5	
COc1cccc(NC(=O)NC[C@H]2O[C@@H](CO)[C@@H](O)[C@H]2N2CCN(c3ccccc3OC)CC2)c1		active: 17.8 µM
